PubChem BioAssay AID652259 | Drosophila RNAi Screening Center – 2013

Test: 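Knock-downs that push a Wingless-driven reporter up or down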 (primary screen)
Cells: Drosophila clone 8 imaginal disc epithelial cells
Reagents: long dsRNA against Drosophila genes
Conditions: pathway stimulated by co-transfected Wingless expression plasmid
Read-out: 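Dual luciferase reads per well after Wingless plasmid stimulation: reporter firefly light and Renilla control light; activity is firefly divided by Renilla, a ratio not deposited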
Direction: firefly reporter light: higher = more Wg reporter light, before normalisation; Renilla control light: higher = more transfected or surviving cells
Rule for the call: 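a knock-down is a candidate when at least two out of four statistical tests show it departing from its plate mean; one test alone signals a weak candidate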
Calls: active = candidate regulator (raises or lowers reporter); inactive = not a candidate
The deposit covers about 22,000 reagents; this is an unselected part of those that have a named target and a result. Of all reagents, 233 (1.1%) are marked active. 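Light values are raw, unnormalised plate reads; the ratio scores behind the reporter calls were not deposited.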 Names joined by + are all predicted targets of the reagent. Reagent sequences are not shown. Not stated in the record: the amount of reagent, the time to read-out, the dose of the treatment.

Arf1 (ADP ribosylation factor 1) [DRSC11606]: firefly reporter light, replicate 1 = 4995; Renilla control light, replicate 1 = 2192; outcome = inactive
CG5149 [DRSC02819]: firefly reporter light, replicate 1 = 8612; Renilla control light, replicate 1 = 4052; outcome = inactive
CG5883 [DRSC10552]: firefly reporter light, replicate 1 = 6791; Renilla control light, replicate 1 = 2707; outcome = inactive
CG11619 [DRSC09849]: firefly reporter light, replicate 1 = 12064; Renilla control light, replicate 1 = 2861; outcome = inactive
boi [DRSC18425]: firefly reporter light, replicate 1 = 18208; Renilla control light, replicate 1 = 15488; outcome = inactive
boi [DRSC18598]: firefly reporter light, replicate 1 = 11069; Renilla control light, replicate 1 = 10845; outcome = inactive
CG5151 [DRSC10487]: reporter change call, replicate 1 = Wg reporter activity raised; firefly reporter light, replicate 1 = 9515; Renilla control light, replicate 1 = 1136; outcome = active
beat-Vc (beaten path Vc) [DRSC12927]: firefly reporter light, replicate 1 = 2408; Renilla control light, replicate 1 = 981; outcome = inactive
beat-Vc (beaten path Vc) [DRSC14849]: firefly reporter light, replicate 1 = 15942; Renilla control light, replicate 1 = 5093; outcome = inactive
eca (eclair) [DRSC22290]: firefly reporter light, replicate 1 = 7.70e5; firefly reporter light, replicate 2 = 7.58e5; Renilla control light, replicate 1 = 1.76e5; Renilla control light, replicate 2 = 2.09e5; outcome = inactive
VhaAC39-1 (Vacuolar H[+] ATPase AC39 subunit 1) [DRSC18242]: firefly reporter light, replicate 1 = 3799; firefly reporter light, replicate 2 = 9452; Renilla control light, replicate 1 = 1744; Renilla control light, replicate 2 = 3174; outcome = inactive
CG13725 [DRSC10054]: firefly reporter light, replicate 1 = 6541; Renilla control light, replicate 1 = 1220; outcome = inactive
Tbcc (Tubulin-binding cofactor C) [DRSC00223]: firefly reporter light, replicate 1 = 15077; Renilla control light, replicate 1 = 7945; outcome = inactive

Continued, starting with the last 3 of the part before.
VhaAC39-1 (Vacuolar H[+] ATPase AC39 subunit 1) [DRSC18242]: firefly reporter light, replicate 1 = 3799; firefly reporter light, replicate 2 = 9452; Renilla control light, replicate 1 = 1744; Renilla control light, replicate 2 = 3174; outcome = inactive
CG13725 [DRSC10054]: firefly reporter light, replicate 1 = 6541; Renilla control light, replicate 1 = 1220; outcome = inactive
Tbcc (Tubulin-binding cofactor C) [DRSC00223]: firefly reporter light, replicate 1 = 15077; Renilla control light, replicate 1 = 7945; outcome = inactive
Rok (Rho kinase) [DRSC20277]: firefly reporter light, replicate 1 = 2567; firefly reporter light, replicate 2 = 5296; Renilla control light, replicate 1 = 1268; Renilla control light, replicate 2 = 935; outcome = inactive
Amyrel (Amylase related) [DRSC05920]: firefly reporter light, replicate 1 = 12202; Renilla control light, replicate 1 = 4297; outcome = inactive
CG32436 [DRSC11683]: firefly reporter light, replicate 1 = 14640; Renilla control light, replicate 1 = 4497; outcome = inactive
CG32436 [DRSC11796]: firefly reporter light, replicate 1 = 9037; Renilla control light, replicate 1 = 3169; outcome = inactive
CG15506 [DRSC15047]: firefly reporter light, replicate 1 = 6768; Renilla control light, replicate 1 = 2808; outcome = inactive
Pcif1 (Phosphorylated CTD-interacting factor 1) [DRSC11655]: firefly reporter light, replicate 1 = 5664; Renilla control light, replicate 1 = 2050; outcome = inactive
NHP2 [DRSC11229]: firefly reporter light, replicate 1 = 7434; Renilla control light, replicate 1 = 2295; outcome = inactive
CG9522 [DRSC20197]: firefly reporter light, replicate 1 = 18982; Renilla control light, replicate 1 = 8374; outcome = inactive
tbrd-2 [DRSC07020]: firefly reporter light, replicate 1 = 3325; Renilla control light, replicate 1 = 1504; outcome = inactive
CG13689 [DRSC00358]: firefly reporter light, replicate 1 = 2538; firefly reporter light, replicate 2 = 7675; Renilla control light, replicate 1 = 890; Renilla control light, replicate 2 = 2914; outcome = inactive
CG33491 (retired record) + CG33496 (retired record) + CG33487 (retired record) + 1 more [DRSC22969]: firefly reporter light, replicate 1 = 5.00e5; firefly reporter light, replicate 2 = 4.38e5; Renilla control light, replicate 1 = 2.51e5; Renilla control light, replicate 2 = 344; outcome = inactive
tna (tonalli) [DRSC09053]: firefly reporter light, replicate 1 = 2729; Renilla control light, replicate 1 = 1565; outcome = inactive
tna (tonalli) [DRSC10937]: reporter change call, replicate 1 = Wg reporter activity raised; firefly reporter light, replicate 1 = 17401; Renilla control light, replicate 1 = 2523; outcome = active
